Experimental data taken from article PMC6922451.

Amino acid sequences for entries named in this document (tags omitted). A change or cut given only in a name is not applied to a line headed by its entry.
UniProt W7XGG1: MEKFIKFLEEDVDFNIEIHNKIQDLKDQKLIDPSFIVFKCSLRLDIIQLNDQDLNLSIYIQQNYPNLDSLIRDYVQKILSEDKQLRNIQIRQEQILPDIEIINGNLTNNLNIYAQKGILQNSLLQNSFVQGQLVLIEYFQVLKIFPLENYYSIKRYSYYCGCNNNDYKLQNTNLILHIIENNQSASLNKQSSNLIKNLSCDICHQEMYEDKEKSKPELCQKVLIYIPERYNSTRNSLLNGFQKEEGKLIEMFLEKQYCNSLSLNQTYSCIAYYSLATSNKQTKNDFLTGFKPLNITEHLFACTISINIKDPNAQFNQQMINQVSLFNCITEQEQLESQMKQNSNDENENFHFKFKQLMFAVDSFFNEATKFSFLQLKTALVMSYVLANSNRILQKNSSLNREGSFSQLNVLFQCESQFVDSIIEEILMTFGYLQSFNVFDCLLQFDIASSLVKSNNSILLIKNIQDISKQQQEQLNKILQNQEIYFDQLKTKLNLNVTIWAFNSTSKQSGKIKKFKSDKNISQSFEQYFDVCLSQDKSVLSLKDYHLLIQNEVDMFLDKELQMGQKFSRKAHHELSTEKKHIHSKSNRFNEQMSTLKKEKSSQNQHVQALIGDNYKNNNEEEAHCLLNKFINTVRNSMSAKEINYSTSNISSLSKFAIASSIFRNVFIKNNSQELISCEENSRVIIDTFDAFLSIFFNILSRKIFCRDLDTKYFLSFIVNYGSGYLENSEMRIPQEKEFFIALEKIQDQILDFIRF

Biological target: Mcmd1-HA (MCM Domain1, C-terminal hemagglutinin tag) (Tetrahymena thermophila) (UniProt Q23YR0)
Test: affinity purification with mass spectrometry; lysate of conjugating cells harvested ~3.5 h after meiotic induction (maximum nuclear elongation), ice-cold Tris lysis buffer, Dounce homogenizer, filtered; incubated with anti-HA affinity gel for 2 h at 4 °C; eluted proteins analysed by mass spectrometry

In the case of “Pamd1 (Partner of Mcmd1) (from UniProt W7XGG1)”, the binding is reported as “binds”.

Results are given in words; binding and its absence hold for the method and conditions named. Binding seen in cells or lysates may run through a third protein. These calls come from enrichment with a bait or labelling near it, and not all partners need be listed.
